According to the supplement of paper PMC10849652:
Some of the results follow.

Chains of the proteins cited; added tags and fusions are not shown. Lines headed by an entry give the natural chain unless they say otherwise; changes in a name come on top.
UniProt Q14442: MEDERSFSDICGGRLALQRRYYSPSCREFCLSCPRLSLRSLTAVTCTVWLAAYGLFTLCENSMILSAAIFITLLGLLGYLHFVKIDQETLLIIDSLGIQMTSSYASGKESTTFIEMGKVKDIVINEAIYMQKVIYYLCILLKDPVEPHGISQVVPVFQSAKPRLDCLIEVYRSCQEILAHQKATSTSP
UniProt Q86YI8: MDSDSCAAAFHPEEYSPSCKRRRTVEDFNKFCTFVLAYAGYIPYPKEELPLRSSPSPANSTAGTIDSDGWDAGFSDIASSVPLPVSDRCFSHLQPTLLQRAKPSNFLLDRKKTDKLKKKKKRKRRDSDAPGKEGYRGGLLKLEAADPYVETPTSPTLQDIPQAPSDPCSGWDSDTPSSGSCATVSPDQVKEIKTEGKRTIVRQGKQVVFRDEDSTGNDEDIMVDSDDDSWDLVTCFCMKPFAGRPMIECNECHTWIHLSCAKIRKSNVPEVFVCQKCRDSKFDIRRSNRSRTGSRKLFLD
UniProt Q9Y2B2: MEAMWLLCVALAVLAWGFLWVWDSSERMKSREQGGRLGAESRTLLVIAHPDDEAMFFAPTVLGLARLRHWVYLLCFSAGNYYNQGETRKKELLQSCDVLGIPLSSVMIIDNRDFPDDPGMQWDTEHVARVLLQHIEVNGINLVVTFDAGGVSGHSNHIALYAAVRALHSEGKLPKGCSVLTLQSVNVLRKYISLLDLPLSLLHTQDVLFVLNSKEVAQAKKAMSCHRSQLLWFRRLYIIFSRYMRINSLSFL
UniProt Q99453, whole entry, looked up: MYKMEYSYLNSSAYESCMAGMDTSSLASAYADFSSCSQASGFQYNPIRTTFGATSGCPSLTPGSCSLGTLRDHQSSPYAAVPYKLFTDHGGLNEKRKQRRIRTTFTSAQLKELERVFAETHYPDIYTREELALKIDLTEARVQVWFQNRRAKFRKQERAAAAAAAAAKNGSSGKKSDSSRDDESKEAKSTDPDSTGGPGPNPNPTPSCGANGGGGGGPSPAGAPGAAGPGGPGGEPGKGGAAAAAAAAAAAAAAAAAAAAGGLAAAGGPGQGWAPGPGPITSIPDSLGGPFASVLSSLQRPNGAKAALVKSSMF
UniProt O00562: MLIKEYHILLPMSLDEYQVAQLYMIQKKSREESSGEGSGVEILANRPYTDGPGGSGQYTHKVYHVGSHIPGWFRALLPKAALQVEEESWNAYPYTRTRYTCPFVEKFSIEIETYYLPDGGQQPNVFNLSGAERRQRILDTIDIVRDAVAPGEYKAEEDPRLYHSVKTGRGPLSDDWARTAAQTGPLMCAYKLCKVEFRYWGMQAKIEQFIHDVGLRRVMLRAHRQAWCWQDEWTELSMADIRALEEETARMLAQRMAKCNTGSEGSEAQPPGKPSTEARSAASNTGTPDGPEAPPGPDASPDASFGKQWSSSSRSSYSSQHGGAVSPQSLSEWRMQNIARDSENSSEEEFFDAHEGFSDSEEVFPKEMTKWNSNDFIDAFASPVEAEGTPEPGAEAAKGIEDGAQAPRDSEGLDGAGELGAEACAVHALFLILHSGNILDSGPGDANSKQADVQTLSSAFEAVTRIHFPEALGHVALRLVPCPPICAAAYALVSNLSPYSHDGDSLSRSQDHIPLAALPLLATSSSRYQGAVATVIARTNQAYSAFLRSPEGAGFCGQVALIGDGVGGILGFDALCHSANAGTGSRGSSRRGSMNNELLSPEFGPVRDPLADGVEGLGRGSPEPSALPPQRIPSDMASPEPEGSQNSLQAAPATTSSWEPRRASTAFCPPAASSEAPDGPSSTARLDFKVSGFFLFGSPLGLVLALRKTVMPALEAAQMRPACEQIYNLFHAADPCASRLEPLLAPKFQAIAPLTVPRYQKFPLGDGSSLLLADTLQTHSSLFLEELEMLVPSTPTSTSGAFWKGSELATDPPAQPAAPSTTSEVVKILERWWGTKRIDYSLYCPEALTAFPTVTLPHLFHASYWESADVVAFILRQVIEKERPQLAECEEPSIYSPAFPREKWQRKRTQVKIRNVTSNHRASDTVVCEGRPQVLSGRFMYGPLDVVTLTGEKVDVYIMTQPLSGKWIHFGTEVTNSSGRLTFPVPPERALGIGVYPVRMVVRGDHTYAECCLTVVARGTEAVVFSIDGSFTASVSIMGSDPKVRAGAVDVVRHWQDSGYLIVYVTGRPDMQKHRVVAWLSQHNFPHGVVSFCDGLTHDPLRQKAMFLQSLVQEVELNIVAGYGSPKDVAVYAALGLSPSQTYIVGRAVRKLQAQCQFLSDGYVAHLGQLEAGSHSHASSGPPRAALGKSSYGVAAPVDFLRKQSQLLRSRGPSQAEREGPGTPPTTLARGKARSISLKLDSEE
UniProt Q9BRB3: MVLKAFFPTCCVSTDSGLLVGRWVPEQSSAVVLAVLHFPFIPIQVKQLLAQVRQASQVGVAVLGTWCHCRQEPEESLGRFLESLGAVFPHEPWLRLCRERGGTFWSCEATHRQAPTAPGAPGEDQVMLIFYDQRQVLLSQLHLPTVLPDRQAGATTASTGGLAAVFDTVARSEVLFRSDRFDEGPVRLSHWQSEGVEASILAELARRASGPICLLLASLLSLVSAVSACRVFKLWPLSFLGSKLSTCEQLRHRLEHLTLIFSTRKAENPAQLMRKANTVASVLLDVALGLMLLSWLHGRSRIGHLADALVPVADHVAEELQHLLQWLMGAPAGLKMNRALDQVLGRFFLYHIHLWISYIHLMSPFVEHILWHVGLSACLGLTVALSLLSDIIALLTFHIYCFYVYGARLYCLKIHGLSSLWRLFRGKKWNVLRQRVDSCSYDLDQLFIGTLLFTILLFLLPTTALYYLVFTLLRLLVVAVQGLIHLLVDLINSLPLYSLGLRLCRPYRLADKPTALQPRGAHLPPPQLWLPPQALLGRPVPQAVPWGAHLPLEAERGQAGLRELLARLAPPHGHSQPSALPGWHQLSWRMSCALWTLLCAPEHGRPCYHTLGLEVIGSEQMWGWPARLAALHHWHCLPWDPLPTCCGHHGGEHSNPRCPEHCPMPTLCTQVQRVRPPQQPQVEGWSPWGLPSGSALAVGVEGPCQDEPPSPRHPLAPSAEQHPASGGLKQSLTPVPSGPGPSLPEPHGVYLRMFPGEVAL
UniProt Q6ZUJ8: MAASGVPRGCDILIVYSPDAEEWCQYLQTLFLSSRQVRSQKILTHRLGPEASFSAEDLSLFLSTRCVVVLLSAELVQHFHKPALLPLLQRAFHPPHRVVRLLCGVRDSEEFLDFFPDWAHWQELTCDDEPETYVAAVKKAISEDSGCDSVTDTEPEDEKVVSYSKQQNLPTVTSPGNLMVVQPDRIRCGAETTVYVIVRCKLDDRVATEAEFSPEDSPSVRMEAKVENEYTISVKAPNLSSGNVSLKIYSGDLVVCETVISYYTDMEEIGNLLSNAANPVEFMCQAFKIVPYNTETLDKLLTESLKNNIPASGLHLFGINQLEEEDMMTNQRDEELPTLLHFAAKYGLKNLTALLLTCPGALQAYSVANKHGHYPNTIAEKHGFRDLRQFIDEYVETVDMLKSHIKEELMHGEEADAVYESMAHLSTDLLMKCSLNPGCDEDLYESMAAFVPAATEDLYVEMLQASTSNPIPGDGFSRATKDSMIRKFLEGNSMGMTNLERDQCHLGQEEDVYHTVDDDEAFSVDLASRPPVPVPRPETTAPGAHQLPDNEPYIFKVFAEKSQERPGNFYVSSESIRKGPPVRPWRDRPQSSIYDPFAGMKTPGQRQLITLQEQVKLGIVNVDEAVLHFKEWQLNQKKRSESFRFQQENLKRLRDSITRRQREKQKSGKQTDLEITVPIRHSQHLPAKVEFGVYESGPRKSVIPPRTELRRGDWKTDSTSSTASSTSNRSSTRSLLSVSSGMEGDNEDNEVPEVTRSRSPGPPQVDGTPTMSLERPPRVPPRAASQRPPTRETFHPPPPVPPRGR
UniProt Q9BSJ6: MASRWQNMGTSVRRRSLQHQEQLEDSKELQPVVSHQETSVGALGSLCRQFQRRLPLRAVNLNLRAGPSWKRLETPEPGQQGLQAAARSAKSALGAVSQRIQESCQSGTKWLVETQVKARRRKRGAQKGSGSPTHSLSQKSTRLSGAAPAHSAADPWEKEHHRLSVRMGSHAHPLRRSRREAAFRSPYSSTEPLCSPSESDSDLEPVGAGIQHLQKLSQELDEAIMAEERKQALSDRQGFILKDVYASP
UniProt O75928, whole entry, looked up: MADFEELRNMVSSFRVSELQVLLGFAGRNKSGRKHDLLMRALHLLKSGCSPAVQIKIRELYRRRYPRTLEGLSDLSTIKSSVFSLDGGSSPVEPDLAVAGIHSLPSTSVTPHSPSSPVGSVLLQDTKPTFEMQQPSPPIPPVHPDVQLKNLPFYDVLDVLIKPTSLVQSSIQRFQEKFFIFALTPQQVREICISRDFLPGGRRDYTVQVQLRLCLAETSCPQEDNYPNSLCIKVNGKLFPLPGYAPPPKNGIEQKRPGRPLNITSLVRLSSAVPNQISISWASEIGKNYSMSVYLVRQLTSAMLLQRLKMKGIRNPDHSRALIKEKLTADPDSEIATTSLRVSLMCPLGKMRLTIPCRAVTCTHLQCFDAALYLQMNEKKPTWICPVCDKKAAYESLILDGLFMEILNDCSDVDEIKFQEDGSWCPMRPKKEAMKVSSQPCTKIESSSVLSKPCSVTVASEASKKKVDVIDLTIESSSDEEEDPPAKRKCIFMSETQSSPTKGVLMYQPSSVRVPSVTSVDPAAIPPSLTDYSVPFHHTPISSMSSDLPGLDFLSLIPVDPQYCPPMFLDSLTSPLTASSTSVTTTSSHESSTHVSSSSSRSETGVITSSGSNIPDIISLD
UniProt O75925, whole entry, looked up: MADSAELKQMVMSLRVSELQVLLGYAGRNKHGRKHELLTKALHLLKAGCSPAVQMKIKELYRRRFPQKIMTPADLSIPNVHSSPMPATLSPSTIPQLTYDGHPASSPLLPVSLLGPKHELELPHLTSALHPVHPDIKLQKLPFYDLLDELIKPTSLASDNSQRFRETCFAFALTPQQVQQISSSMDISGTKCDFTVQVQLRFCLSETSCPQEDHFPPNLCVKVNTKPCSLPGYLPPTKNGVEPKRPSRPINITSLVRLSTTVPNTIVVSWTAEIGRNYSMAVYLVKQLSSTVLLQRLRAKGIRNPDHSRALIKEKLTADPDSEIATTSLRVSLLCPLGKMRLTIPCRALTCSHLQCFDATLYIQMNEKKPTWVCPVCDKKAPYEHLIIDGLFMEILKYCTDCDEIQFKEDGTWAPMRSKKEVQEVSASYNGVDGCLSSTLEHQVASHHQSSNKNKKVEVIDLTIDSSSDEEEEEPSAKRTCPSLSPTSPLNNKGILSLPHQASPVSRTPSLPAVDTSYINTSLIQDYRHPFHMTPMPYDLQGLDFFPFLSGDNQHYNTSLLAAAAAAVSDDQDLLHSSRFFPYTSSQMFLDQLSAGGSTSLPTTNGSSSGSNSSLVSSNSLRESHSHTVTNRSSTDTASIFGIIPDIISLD
UniProt Q99569: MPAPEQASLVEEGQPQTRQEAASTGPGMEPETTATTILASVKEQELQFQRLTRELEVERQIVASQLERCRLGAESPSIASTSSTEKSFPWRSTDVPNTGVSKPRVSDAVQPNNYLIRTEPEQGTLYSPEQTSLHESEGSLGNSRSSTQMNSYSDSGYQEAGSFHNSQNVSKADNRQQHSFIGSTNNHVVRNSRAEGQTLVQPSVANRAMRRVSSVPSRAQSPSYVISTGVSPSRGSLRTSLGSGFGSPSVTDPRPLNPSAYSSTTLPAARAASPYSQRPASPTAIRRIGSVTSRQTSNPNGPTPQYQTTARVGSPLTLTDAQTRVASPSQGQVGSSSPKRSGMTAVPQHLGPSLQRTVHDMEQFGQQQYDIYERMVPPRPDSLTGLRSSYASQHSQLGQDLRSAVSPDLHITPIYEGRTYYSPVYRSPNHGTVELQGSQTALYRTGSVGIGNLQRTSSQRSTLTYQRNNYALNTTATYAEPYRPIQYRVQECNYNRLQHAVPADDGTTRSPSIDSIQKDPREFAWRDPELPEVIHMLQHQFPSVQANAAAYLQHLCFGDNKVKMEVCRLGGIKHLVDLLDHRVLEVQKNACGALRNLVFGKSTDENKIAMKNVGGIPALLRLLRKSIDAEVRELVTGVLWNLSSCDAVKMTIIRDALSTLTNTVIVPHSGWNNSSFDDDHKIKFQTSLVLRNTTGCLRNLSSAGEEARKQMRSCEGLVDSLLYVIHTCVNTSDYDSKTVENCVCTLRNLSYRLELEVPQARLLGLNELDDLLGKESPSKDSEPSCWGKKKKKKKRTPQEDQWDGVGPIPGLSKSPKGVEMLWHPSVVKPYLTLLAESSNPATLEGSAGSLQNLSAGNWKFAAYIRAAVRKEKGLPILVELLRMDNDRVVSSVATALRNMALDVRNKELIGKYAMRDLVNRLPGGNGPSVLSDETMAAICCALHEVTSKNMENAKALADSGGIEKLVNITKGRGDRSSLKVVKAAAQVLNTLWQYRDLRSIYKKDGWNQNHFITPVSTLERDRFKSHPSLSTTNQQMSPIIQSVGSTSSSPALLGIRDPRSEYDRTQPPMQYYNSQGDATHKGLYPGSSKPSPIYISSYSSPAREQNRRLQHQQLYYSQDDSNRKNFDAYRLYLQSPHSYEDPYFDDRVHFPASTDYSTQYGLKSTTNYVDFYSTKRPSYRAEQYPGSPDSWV

Assays:
Test in all cases: log2 fold change, soluble protein after heating vs DMSO (PISA); higher = thermal stabilisation; K562 lysate, 10 uM; active = over 0.2 and 3.5 SD of the protein, either way, in both replicates (recomputed)
ibrutinib = compound: C=CC(=O)N1CCC[C@@H](n2nc(-c3ccc(Oc4ccccc4)cc3)c3c(N)ncnc32)C1 [ibrutinib]
Summary of the method: (§1)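 A 30 min treatment with 10 μM compound was applied to crude K562 extract at 1 mg/mL protein in PBS pH 7.4 with 1 mM MgCl2. Heating for 3 min spanned 48°C-58°C, after which aliquots were pooled, adjusted to 0.5% NP-40 at 4°C and spun at 21,000xg for 90 min. TMTpro 16plex LC-MS/MS of the supernatant, with channel sums equalised, gave values recorded as log-two fold change in thermal stability against solvent controls, from duplicates.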

[1] = compound: CC(=O)c1cnc2ccc(-c3cc(Cl)c(O)c(Cl)c3)nc2c1N[C@H]1CC[C@H](CN(C)C)CC1
Summary of the method: as §1

[2] = compound: CC(C)C1=C2N=C(C=C(N2N=C1)NCC3=CC=CC=C3)NCCCCCCN
Summary of the method: as §1

[3] = compound: CC1=C(C=C(C=C1)NC(=O)C2=CC(=CC=C2)C(C)(C)C#N)NC3=CC4=C(C=C3)N=CN(C4=O)C
Summary of the method: as §1

[4] = compound: CC1=CC=C(C=C1)SC2=C3C=C(SC3=CN=C2)C(=O)N
Summary of the method: as §1

vemurafenib = compound: CCCS(=O)(=O)Nc1ccc(F)c(C(=O)c2c[nH]c3ncc(-c4ccc(Cl)cc4)cc23)c1F [vemurafenib]
Summary of the method: as §1

[5] = compound: CCCS(=O)(=O)Nc1ccc(F)c(C(=O)c2c[nH]c3ncc(Cl)cc23)c1F
Summary of the method: as §1

barasertib = compound: CCN(CCCOc1ccc2c(Nc3cc(CC(=O)Nc4cccc(F)c4)[nH]n3)ncnc2c1)CCOP(=O)(O)O [barasertib]
Summary of the method: as §1

volasertib = compound: CC[C@@H]1C(=O)N(C)c2cnc(Nc3ccc(C(=O)N[C@H]4CC[C@H](N5CCN(CC6CC6)CC5)CC4)cc3OC)nc2N1C(C)C [volasertib]
Summary of the method: as §1

[6] = compound: CCn1cc(-c2ccnc3[nH]c(-c4cccc(CN(C)C)c4)cc23)c(-c2ccc(NC(=O)N(C)C)cc2)n1
Summary of the method: as §1

[7] = compound: CN1CCC(CNc2ccc3ncc(-c4cccc(OC(F)(F)F)c4)n3n2)CC1
Summary of the method: as §1

sotrastaurin = compound: CN1CCN(c2nc(C3=C(c4c[nH]c5ccccc45)C(=O)NC3=O)c3ccccc3n2)CC1 [sotrastaurin]
Summary of the method: as §1

ralimetinib = compound: CC(C)(C)Cn1c(N)nc2ccc(-c3[nH]c(C(C)(C)C)nc3-c3ccc(F)cc3)nc21 [ralimetinib]
Summary of the method: as §1

[8] = compound: CC(C)(O)CC(=O)NCCn1ccc2ncnc(Nc3ccc(Oc4cccc(C(F)(F)F)c4)c(Cl)c3)c21
Summary of the method: as §1

[9] = compound: CC1=C(C=C(C=C1)NC(=O)C2=CC(=CC=C2)N(C)C)NC(=O)C3=CC=C(C=C3)O
Summary of the method: as §1

[10] = compound: CCn1c(C(=O)N(C2CC2)C2CC2)cc2c3c(ncn3C)c(Nc3cc(C)n(C)n3)nc21
Summary of the method: as §1

[11] = compound: CC1=C(C2=C(C=C1)C(=O)C3=CC=CC=C3N2CCCN)C
Summary of the method: as §1

[12] = compound: CC[C@@H]1C(=O)N(C)c2cnc(Nc3ccc(C(=O)NC4CCN(C)CC4)cc3OC)nc2N1C1CCCC1
Summary of the method: as §1

saracatinib = compound: CN1CCN(CCOc2cc(OC3CCOCC3)c3c(Nc4c(Cl)ccc5c4OCO5)ncnc3c2)CC1 [saracatinib]
Summary of the method: as §1

[13] = compound: CC1=C(C(CC(=O)N1)C2=CC=C(C=C2)C(F)(F)F)C(=O)NC3=C(C=C4C(=C3)C=NN4)F
Summary of the method: as §1

Target | log2 fold change (ibrutinib) | log2 fold change [1] | log2 fold change [2] | log2 fold change [3] | log2 fold change [4] | log2 fold change (vemurafenib) | log2 fold change [5] | log2 fold change (barasertib) | log2 fold change (volasertib) | log2 fold change [6] | log2 fold change [7] | log2 fold change (sotrastaurin) | log2 fold change (ralimetinib) | log2 fold change [8] | log2 fold change [9] | log2 fold change [10] | log2 fold change [11] | log2 fold change [12] | log2 fold change (saracatinib) | log2 fold change [13]
PIGH (UniProt Q14442) | inactive: 0.076 | inactive: 0.033 | inactive: -0.1 | inactive: -0.137 | inactive: -0.149 | inactive: -0.02 | inactive: 0.052 | inactive: -0.038 | inactive: -0.021 | inactive: -0.015 | inactive: 0.036 | inactive: 0.054 |  |  |  |  |  |  |  | 
PHF13 (UniProt Q86YI8) | inactive: -0.146 | inactive: -0.144 |  | inactive: 0.13 | inactive: -0.143 |  | inactive: 0.012 | inactive: 0.019 | inactive: 0.019 | inactive: -0.611 | inactive: 0.411 | inactive: 0.048 | inactive: -0.046 | inactive: -0.268 | inactive: 0.04 | inactive: -0.163 |  |  |  | 
PIGL (UniProt Q9Y2B2) | inactive: 0.024 | inactive: -0.018 | inactive: -0.034 | inactive: -0.128 | inactive: 0.067 |  | inactive: -0.096 | inactive: -0.083 | inactive: -0.452 |  |  | inactive: 0.076 | inactive: -0.089 | inactive: -0.11 | inactive: 0.075 | inactive: -0.035 | inactive: -0.604 | inactive: -0.092 | inactive: 0.003 | 
PHOX2B (UniProt Q99453) | inactive: 0.036 |  |  | inactive: 0.138 |  | inactive: 0.151 |  | inactive: -0.111 |  |  |  | inactive: 0.155 |  |  |  |  | inactive: 0.033 | inactive: -0.095 | inactive: 0.252 | inactive: -0.155
PITPNM1 (UniProt O00562) | inactive: 0.045 |  |  | inactive: 0.103 |  |  |  | inactive: -0.038 |  |  |  | inactive: 0.039 | inactive: 0.17 | inactive: -0.007 | inactive: 0.118 | inactive: -0.016 |  |  |  | inactive: -0.048
PHF14 (UniProt O94880) | inactive: -0.014 | inactive: 0.03 |  |  | inactive: -0.128 | inactive: 0.079 | inactive: -0.127 | inactive: -0.046 | inactive: 0.004 |  |  |  | inactive: -0.024 | inactive: -0.055 | inactive: -0.042 | inactive: -0.02 | inactive: -0.003 | inactive: 0.341 | inactive: -0.047 | active: 0.454
PIGQ (UniProt Q9BRB3) | inactive: -0.209 | inactive: 0.016 |  | inactive: -0.074 | inactive: 0.137 | inactive: 0.086 | inactive: 0.147 | inactive: -0.22 | inactive: 0.098 | inactive: -0.142 | inactive: 0 | inactive: 0.188 |  |  |  |  |  | inactive: 0.022 |  | 
PIK3AP1 (UniProt Q6ZUJ8) | inactive: 0.035 |  |  | inactive: 0.054 |  |  |  | inactive: 0.017 |  |  |  | inactive: -0.093 | inactive: -0.03 | inactive: -0.093 | inactive: -0.098 | inactive: -0.126 | inactive: -0.151 | inactive: 0.095 | inactive: -0.173 | 
PLCB4 isoform 4 (UniProt Q15147) |  | inactive: 0.131 | inactive: 0.105 |  | inactive: 0.023 |  | inactive: 0.081 |  | inactive: -0.096 |  |  |  | inactive: 0.088 | inactive: -0.066 | inactive: -0.131 | inactive: 0.079 |  | inactive: 0.125 |  | 
PIMREG (UniProt Q9BSJ6) | inactive: 0.14 |  | inactive: -0.235 | inactive: 0.129 |  |  |  | inactive: 0.172 |  | inactive: 0.105 | inactive: 0.03 | inactive: -0.068 | inactive: 0.027 | inactive: 0.11 | inactive: -0.181 | inactive: 0.263 |  |  |  | 
PKN3 (UniProt Q6P5Z2) | inactive: 0.061 |  | inactive: 0.141 | inactive: 0.023 |  | inactive: -0.072 |  | inactive: -0.031 |  | inactive: 0.003 | inactive: -0.065 | inactive: 0.136 | inactive: -0.043 | inactive: -0.003 | inactive: 0.027 | inactive: -0.056 | inactive: 0.037 | inactive: -0.065 | inactive: 0.037 | inactive: -0.061
PIK3CG (UniProt P48736) | inactive: -0.017 |  | inactive: -0.027 | inactive: -0.025 |  | inactive: 0.028 |  | inactive: 0.046 |  | active: -0.276 | active: 0.289 | inactive: 0.051 | inactive: 0.02 | inactive: -0.047 | inactive: 0.01 | inactive: 0.006 | inactive: -0.071 | inactive: 0.004 | inactive: 0.028 | inactive: -0.054
PICALM (UniProt H0YCY1) |  |  | inactive: -0.155 |  |  |  |  |  |  |  |  |  |  |  |  |  |  |  |  | 
PIWIL4 (UniProt Q7Z3Z4) |  |  |  |  |  |  |  |  |  |  |  |  |  |  |  |  |  |  |  | inactive: 0.049
PIAS2 (UniProt O75928) |  |  | inactive: -0.017 | inactive: -0.001 |  | inactive: -0.263 |  |  |  |  |  | inactive: -0.033 | inactive: 0.019 | inactive: 0.006 | inactive: -0.002 | inactive: 0.003 | inactive: 0.052 | inactive: -0.026 | inactive: 0.044 | inactive: 0.039
PIAS1 isoform 2 (UniProt O75925) |  |  | inactive: 0.181 | inactive: -0.032 |  |  |  |  |  | inactive: -0.481 | inactive: -0.069 | inactive: -0.046 |  |  |  |  | inactive: -0.152 |  | inactive: 0.014 | inactive: -0.455
PLAUR (UniProt Q03405) |  |  | inactive: 0.051 |  |  |  |  |  |  | inactive: -0.041 | inactive: 0.111 |  |  |  |  |  | inactive: 0.152 | inactive: 0.137 | inactive: -0.049 | 
PKP4 (UniProt Q99569) |  |  |  |  |  |  |  |  |  | inactive: 0.097 | inactive: -0.005 |  | inactive: 0.005 | inactive: -0.044 | inactive: -0.012 | inactive: 0.028 | inactive: 0.084 | inactive: 0.025 | inactive: -0.08 | 

Given in markdown: entries from further up

| Target | log2 fold change (ibrutinib) | log2 fold change [1] | log2 fold change [2] | log2 fold change [3] | log2 fold change [4] | log2 fold change (vemurafenib) | log2 fold change [5] | log2 fold change (barasertib) | log2 fold change (volasertib) | log2 fold change [6] | log2 fold change [7] | log2 fold change (sotrastaurin) | log2 fold change (ralimetinib) | log2 fold change [8] | log2 fold change [9] | log2 fold change [10] | log2 fold change [11] | log2 fold change [12] | log2 fold change (saracatinib) | log2 fold change [13] |
| --- | --- | --- | --- | --- | --- | --- | --- | --- | --- | --- | --- | --- | --- | --- | --- | --- | --- | --- | --- | --- |
| PIWIL4 (UniProt Q7Z3Z4) |  |  |  |  |  |  |  |  |  |  |  |  |  |  |  |  |  |  |  | inactive: 0.049 |
| PKP4 (UniProt Q99569) |  |  |  |  |  |  |  |  |  | inactive: 0.097 | inactive: -0.005 |  | inactive: 0.005 | inactive: -0.044 | inactive: -0.012 | inactive: 0.028 | inactive: 0.084 | inactive: 0.025 | inactive: -0.08 |  |
